# Laboratory results published in article PMC4859069 (2016).
# Results are given in words; binding and its absence hold for the method and conditions named. For some of these results: Binding seen in cells or lysates may run through a third protein. Some entries that bind do so weakly or less than the wild type. Tags and fused reporters may be left off the sequences shown.
# T1: Flag-14-3-3ζ (Drosophila) (UniProt P29310)
# T1 sequence: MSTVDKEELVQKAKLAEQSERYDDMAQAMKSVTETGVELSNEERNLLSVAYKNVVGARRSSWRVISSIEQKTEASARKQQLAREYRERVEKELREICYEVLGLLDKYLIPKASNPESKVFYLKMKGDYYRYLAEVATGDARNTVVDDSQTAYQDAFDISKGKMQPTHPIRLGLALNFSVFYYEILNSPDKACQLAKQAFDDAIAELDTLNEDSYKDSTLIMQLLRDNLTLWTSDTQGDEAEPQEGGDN
# T2: GST-14-3-3ζ (Drosophila melanogaster (Fruit fly), UniProt P29310)
# T2 chain: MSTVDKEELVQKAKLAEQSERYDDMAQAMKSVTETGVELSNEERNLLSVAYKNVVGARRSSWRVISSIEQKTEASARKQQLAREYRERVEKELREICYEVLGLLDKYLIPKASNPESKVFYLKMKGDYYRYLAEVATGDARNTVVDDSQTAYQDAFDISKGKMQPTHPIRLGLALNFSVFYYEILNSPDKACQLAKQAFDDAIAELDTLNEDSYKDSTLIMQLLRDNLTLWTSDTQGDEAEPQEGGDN
# How the values were obtained:
# [1] = target: T1, Flag-14-3-3ζ (Drosophila); assay: co-IP; S2 cells co-transfected with Flag-tagged 14-3-3 (or Flag-GFP) and V5-Tctp or V5-Rheb; CHAPS-based lysis buffer; anti-Flag on G-sepharose beads, overnight at 4 °C; blot with anti-V5
# GST-14-3-3ζ = target: T2, GST-14-3-3ζ; assay: pull-down; 20 μg of each MBP- and GST-tagged protein in 500 μl pull-down buffer (20 mM Tris pH 7.5, 150 mM NaCl, 0.5 mM EDTA, 10% glycerol, 0.1% Triton X-100, 1 mM DTT), overnight at 4 °C with Glutathione Excellose resin; blot with anti-MBP; both purified
Binder,binding [1],binding (GST-14-3-3ζ)
"V5-Tctp (protein, UniProt Q9VGS2 1-172) MKIYKDIITGDEMFADTYKMKLVDDVIYEVYGKLITRQGDDIKLEGANASAEEADEGTDITSESGVDVVLNHRLTECFAFGDKKSYTLYLKDYMKKVLAKLEEKSPDQVDIFKTNMNKAMKDILGRFKELQFFTGESMDCDGMVALVEYREINGDSVPVLMFFKHGLEEEKC",binds,–
MBP-Tctp (protein) MKIYKDIITGDEMFADTYKMKLVDDVIYEVYGKLITRQGDDIKLEGANASAEEADEGTDITSESGVDVVLNHRLTECFAFGDKKSYTLYLKDYMKKVLAKLEEKSPDQVDIFKTNMNKAMKDILGRFKELQFFTGESMDCDGMVALVEYREINGDSVPVLMFFKHGLEEEKC,–,binds
"V5-Rheb (protein, UniProt Q9VND8 1-182) MPTKERHIAMMGYRSVGKSSLCIQFVEGQFVDSYDPTIENTFTKIERVKSQDYIVKLIDTAGQDEYSIFPVQYSMDYHGYVLVYSITSQKSFEVVKIIYEKLLDVMGKKYVPVVLVGNKIDLHQERTVSTEEGKKLAESWRAAFLETSAKQNESVGDIFHQLLILIENENGNPQEKSGCLVS",binds,–
"MBP–Rheb (protein, UniProt Q9VND8 1-182) MPTKERHIAMMGYRSVGKSSLCIQFVEGQFVDSYDPTIENTFTKIERVKSQDYIVKLIDTAGQDEYSIFPVQYSMDYHGYVLVYSITSQKSFEVVKIIYEKLLDVMGKKYVPVVLVGNKIDLHQERTVSTEEGKKLAESWRAAFLETSAKQNESVGDIFHQLLILIENENGNPQEKSGCLVS",–,binds
